The values below come from publication PMC3513190.

Protein sequences, listed by entry. Tags and fused reporters are not part of them. Residues count along the entry.
UniProt P16422, 24-314: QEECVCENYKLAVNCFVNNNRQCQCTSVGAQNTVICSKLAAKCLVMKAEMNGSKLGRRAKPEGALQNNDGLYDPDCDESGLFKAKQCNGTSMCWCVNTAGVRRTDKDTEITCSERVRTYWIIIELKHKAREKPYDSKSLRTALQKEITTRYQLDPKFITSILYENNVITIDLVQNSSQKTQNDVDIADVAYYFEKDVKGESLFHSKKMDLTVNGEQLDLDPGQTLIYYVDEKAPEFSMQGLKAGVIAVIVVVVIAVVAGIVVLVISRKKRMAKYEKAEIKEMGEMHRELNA

Construct, isoform or probe ends are uncertain for at least one entry. Where cells or extracts were used, other partners may take part. Negatives hold for the conditions tested. At least one verdict rests on a figure or table, not on a statement of the authors.

The target in this data set is EpCAM (epithelial cell adhesion molecule) on RB tumor cells, Y79 and WERI-Rb1 (UniProt P16422). Put plainly: flow cytometry. The note with it: 100 nM aptamer, PBS with 5 mM MgCl2, 0.1 mg/ml tRNA, 0.1 mg/ml salmon sperm DNA, on ice 1 h, pH not stated, protein on the cell surface.

For the sequence GCGACUGGUUACCCGGUCG [EpDT3-FI], the binding result runs as follows: (RB primary tumor cells (n=4), 5 mM MgCl2, 35% of cells bound, 2'-fluoro pyrimidines) “binds”; (WERI-Rb1 cells, 5 mM MgCl2, 2'-fluoro pyrimidines) “binds”; (Y79 cells, 5 mM MgCl2, 2'-fluoro pyrimidines) “binds”.

As for GCGACUGGUUACCCGGUCG [Scr-EpDT3-FI], the binding result is “no binding” (RB primary tumor cells (n=4), 5 mM MgCl2, text: did not bind, legend: least binding, 2'-OMe pyrimidines); “no binding” (WERI-Rb1 cells, 5 mM MgCl2, 2'-OMe pyrimidines); “no binding” (Y79 cells, 5 mM MgCl2, 2'-OMe pyrimidines).
